Experimental findings from publication PMC3814370, “Functional assignment of KEOPS/EKC complex subunits in the biosynthesis of the universal t^6A tRNA modification” (Nucleic Acids Research, 2013) are described below.

By UniProt entry, the sequences of proteins in these tests, tags left out.
UniProt Q9UXT7: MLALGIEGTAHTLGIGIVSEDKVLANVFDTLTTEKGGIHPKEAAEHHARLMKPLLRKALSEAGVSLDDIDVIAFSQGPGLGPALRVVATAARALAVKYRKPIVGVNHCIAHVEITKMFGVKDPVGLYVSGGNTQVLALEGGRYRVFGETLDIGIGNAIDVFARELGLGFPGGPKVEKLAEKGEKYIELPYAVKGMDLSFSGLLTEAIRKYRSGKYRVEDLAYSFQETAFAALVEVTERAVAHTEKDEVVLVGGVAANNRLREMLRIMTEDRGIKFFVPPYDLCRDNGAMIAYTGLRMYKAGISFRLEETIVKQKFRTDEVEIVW

These are yes or no findings as the source states them, for the method shown. Some entries that bind do so weakly or less than the wild type.

The target in test [1] is Kae1–Bud32–Cgi121 ternary complex from Pyrococcus abyssi (Pyrococcus abyssi) (UniProt Q9UXT7+Q9UYB9+Q9UZ62). Briefly: SEC; gel filtration of purified proteins and complexes on Superdex 200 in storage buffer (LBs); apparent molecular mass (Supplementary Figure S2); both purified. For orientation: Size exclusion chromatography separates by hydrodynamic size, large species first.

The target of test [2] is T1, Bud32–Cgi121 binary complex from Pyrococcus abyssi (Pyrococcus abyssi) (UniProt Q9UYB9+Q9UZ62).
T1 sequence 1: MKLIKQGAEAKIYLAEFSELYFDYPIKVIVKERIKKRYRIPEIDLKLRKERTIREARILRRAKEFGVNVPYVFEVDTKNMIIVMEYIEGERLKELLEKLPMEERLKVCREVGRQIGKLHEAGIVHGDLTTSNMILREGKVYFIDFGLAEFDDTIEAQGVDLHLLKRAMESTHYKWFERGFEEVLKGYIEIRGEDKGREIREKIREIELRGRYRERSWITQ
T1 sequence 2: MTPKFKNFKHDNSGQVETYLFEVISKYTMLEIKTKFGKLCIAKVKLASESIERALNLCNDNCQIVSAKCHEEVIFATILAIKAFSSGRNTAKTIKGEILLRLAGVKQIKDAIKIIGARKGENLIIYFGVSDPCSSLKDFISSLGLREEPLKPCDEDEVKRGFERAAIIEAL
The test can be described thus: co-purification of co-expressed proteins (Ni-NTA, then gel filtration); subunits co-expressed in E. coli; extract heated at 65°C for 15 min; His-tagged proteins purified on Ni-NTA, then Superdex 200 in storage buffer (LBs); fractions analysed by SDS-PAGE.

For “Kae1–Bud32–Cgi121 ternary complex from Pyrococcus abyssi (from UniProt Q9UXT7 1-324; Q9UYB9 1-220; Q9UZ62 1-171)”, in test [1], the binding result is reported as “no binding”.

“Kae1 from Pyrococcus abyssi (from UniProt Q9UXT7 1-324) (enzyme)”: the binding entry in test [2] is “binds”.
